Consider one molecule from PMC12192654.

These are yes or no findings as the source states them, for the method shown. Binding seen in cells or lysates may run through a third protein. Where a sequence is shown, tags or fusion partners need not be part of it.

This assay concerns the target T1, Swt21-TAP (TAP-tagged Swt21p) (S. cerevisiae) (UniProt P53873).
T1 sequence: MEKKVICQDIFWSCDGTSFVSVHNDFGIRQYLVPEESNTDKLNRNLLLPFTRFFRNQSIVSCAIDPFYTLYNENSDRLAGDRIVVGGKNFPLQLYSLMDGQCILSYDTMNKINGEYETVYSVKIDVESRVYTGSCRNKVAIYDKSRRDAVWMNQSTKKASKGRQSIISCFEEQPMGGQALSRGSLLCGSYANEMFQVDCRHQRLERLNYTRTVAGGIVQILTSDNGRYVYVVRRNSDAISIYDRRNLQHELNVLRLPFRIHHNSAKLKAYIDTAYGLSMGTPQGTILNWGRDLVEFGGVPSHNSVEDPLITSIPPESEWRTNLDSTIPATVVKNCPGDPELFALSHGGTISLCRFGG
Put plainly: co-IP; extracts (without ATP or pre-mRNA) from Non-TAP and Swt21-TAP strains carrying Nam8-HA incubated with IgG Sepharose 6 Fast Flow, 2 h at 4 °C, IPP300 buffer; precipitates blotted with anti-HA.

B1: Nam8-HA (HA-tagged Nam8p) (protein, UniProt Q00539 1-523)
chain: MSYKQTTYYPSRGNLVRNDSSPYTNTISSETNNSSTSVLSLQGASNVSLGTTGNQLYMGDLDPTWDKNTVRQIWASLGEANINVRMMWNNTLNNGSRSSMGPKNNQGYCFVDFPSSTHAANALLKNGMLIPNFPNKKLKLNWATSSYSNSNNSLNNVKSGNNCSIFVGDLAPNVTESQLFELFINRYASTSHAKIVHDQVTGMSKGYGFVKFTNSDEQQLALSEMQGVFLNGRAIKVGPTSGQQQHVSGNNDYNRSSSSLNNENVDSRFLSKGQSFLSNGNNNMGFKRNHMSQFIYPVQQQPSLNHFTDPNNTTVFIGGLSSLVTEDELRAYFQPFGTIVYVKIPVGKCCGFVQYVDRLSAEAAIAGMQGFPIANSRVRLSWGRSAKQTALLQQAMLSNSLQVQQQQPGLQQPNYGYIPSSTCEAPVLPDNNVSSTMLPGCQILNYSNPYANANGLGSNNFSFYSNNNATNTQATSLLADTSSMDLSGTGGQQVIMQGSEAVVNSTNAMLNRLEQGSNGFMFA
Turning to B1, the binding entry is “no binding”.
